PubChem BioAssay AID1508597, Cure First, 2020

Purpose: 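Knock-downs altering ovarian cancer cell survival with or without PARP inhibitor rucaparib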 (primary screen)
System: human ovarian carcinoma lines grown from tumours: OCI-P5x (papillary serous) and OCI-C5x (clear cell)
Reagents: siRNA pool against human genes, 1.25 pmol siRNA per well
Timing: 72 h or 96 h, depending on the cell culture
Conditions: rucaparib 20 µM (about IC30) or vehicle, present until read-out
Rucaparib or vehicle: Rucaparib
Cell line: OCI-C5x (clear cell)
Measured: 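Luminescent ATP-based viability assay read 72 or 96 h after transfection, depending on culture, given as normalised percent viability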
Scale: viability, normalised: higher = more viable cells remaining
Rule for the call: 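Active when normalised viability falls below 80 percent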
Calls: active = viability under 80%; inactive = viability 80% or more
This is a random part of the about 2,100 reagents, under one of the conditions tested. 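Calls flag viability under 80% in either arm, not effects specific to rucaparib; the reference for percent is not stated.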 A reagent listed more than once was tested more than once; the source does not tell the runs apart. Reagent sequences are not shown. Not given: the 100% reference.

| target | technical replicate | viability, normalised (%) | Outcome |
| --- | --- | --- | --- |
| GRK3 | 1 | 43.6 | active |
| GRK3 | 1 | 49 | active |
| GRK3 | 2 | 72.6 | active |
| GRK3 | 2 | 46.2 | active |
| GRK3 | 3 | 48.4 | active |
| GRK3 | 3 | 65.1 | active |
| KIF4A | 1 | 49.2 | active |
| KIF4A | 2 | 62.7 | active |
| KIF4A | 3 | 59.7 | active |
| JMJD6 | 1 | 34.5 | active |
| JMJD6 | 2 | 36.3 | active |
| JMJD6 | 3 | 43 | active |
| TLK1 | 1 | 72 | active |
| TLK1 | 1 | 78.3 | active |
| TLK1 | 2 | 67.7 | active |
| TLK1 | 2 | 51.9 | active |
| TLK1 | 3 | 54.9 | active |
| TLK1 | 3 | 69.3 | active |
| MEMO1 | 1 | 44.6 | active |
| MEMO1 | 2 | 30.4 | active |
| MEMO1 | 3 | 42.8 | active |
| ZFP82 | 1 | 69.6 | active |
| ZFP82 | 2 | 57 | active |
| ZFP82 | 3 | 55.9 | active |
| SBNO1 | 1 | 47.6 | active |
| SBNO1 | 2 | 41.6 | active |
| SBNO1 | 3 | 47.9 | active |
| RPL3 | 1 | 55.7 | active |
| RPL3 | 2 | 41.9 | active |
| RPL3 | 3 | 45.5 | active |
| DHX29 | 1 | 46.2 | active |
| DHX29 | 2 | 59.2 | active |
| DHX29 | 3 | 43 | active |

Laid out differently: results already given.
target | technical replicate | viability, normalised (%) | Outcome
GRK3 | 2 | 46.2 | active
GRK3 | 3 | 48.4 | active
GRK3 | 3 | 65.1 | active
KIF4A | 1 | 49.2 | active

More reagents follow.
| target | technical replicate | viability, normalised (%) | Outcome |
| --- | --- | --- | --- |
| NME6 | 1 | 43.6 | active |
| NME6 | 1 | 67 | active |
| NME6 | 2 | 50.5 | active |
| NME6 | 2 | 44.7 | active |
| NME6 | 3 | 35.6 | active |
| NME6 | 3 | 43.8 | active |
| NSD1 | 1 | 47.1 | active |
| NSD1 | 2 | 58.9 | active |
| NSD1 | 3 | 55.1 | active |
| ENPP4 | 1 | 47.9 | active |
| ENPP4 | 2 | 38.7 | active |
| ENPP4 | 3 | 35.8 | active |
| ELAC1 | 1 | 60.2 | active |
| ELAC1 | 2 | 59.2 | active |
| ELAC1 | 3 | 46 | active |
| TFRC | 1 | 61.9 | active |
| TFRC | 2 | 63.9 | active |
| TFRC | 3 | 74.3 | active |
| SAFB | 1 | 65.7 | active |
| SAFB | 2 | 37.1 | active |
| SAFB | 3 | 43.4 | active |
| EPHB2 | 1 | 64.9 | active |
| EPHB2 | 2 | 57.5 | active |
| EPHB2 | 3 | 59.3 | active |
